These are yes or no findings as the source states them, for the method shown. For some assays here: Binding seen in cells or lysates may run through a third protein. Some binding calls cover weakened binding; strength is not graded here. Each block holds one substance with its values, some of them ahead of it.
What was measured:
[1] = target: 3HA-HBx (hepatitis B virus) (UniProt P03165); assay: co-IP; protein extracts of transfected cells immunoprecipitated with primary antibody or IgG at 4 °C overnight, protein A/G magnetic beads, washed 4 times, Western blot
[2] = target: 3HA-TARDBP (UniProt Q13148); assay: as above
[3] = target: 3Flag-STAU1 (UniProt O95793); assay: as above
[4] = target: C10-STAU1 (UniProt O95793); assay: split reporter; tripartite Nanoluc luciferase: C10-tagged and N8-tagged proteins co-transfected with a plasmid expressing Nano1-7 into HepG2 cells; luciferase activity measured 48 h post-transfection
[5] = target: 3HA-HBx (hepatitis B virus) (UniProt P03165); assay: co-IP; IP assays, data not shown; HBx with 20S proteasome subunits, with or without STAU1
[6] = target: TARDBP recombinant protein (UniProt Q13148); assay: native gel or EMSA; both purified

Sequences of proteins named here, by UniProt entry; tags and fusion partners are left off.
UniProt Q13148: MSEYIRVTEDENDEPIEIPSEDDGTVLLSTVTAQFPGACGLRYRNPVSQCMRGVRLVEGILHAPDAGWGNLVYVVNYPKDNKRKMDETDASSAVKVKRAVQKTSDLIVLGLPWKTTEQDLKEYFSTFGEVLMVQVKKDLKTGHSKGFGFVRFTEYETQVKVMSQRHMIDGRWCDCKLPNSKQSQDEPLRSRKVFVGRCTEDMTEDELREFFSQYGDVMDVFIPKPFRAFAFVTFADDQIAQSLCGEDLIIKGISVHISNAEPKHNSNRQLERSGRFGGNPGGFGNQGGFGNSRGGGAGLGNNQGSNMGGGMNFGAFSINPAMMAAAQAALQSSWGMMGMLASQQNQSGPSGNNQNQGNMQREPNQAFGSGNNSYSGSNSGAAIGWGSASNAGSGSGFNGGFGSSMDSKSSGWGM
UniProt O95793: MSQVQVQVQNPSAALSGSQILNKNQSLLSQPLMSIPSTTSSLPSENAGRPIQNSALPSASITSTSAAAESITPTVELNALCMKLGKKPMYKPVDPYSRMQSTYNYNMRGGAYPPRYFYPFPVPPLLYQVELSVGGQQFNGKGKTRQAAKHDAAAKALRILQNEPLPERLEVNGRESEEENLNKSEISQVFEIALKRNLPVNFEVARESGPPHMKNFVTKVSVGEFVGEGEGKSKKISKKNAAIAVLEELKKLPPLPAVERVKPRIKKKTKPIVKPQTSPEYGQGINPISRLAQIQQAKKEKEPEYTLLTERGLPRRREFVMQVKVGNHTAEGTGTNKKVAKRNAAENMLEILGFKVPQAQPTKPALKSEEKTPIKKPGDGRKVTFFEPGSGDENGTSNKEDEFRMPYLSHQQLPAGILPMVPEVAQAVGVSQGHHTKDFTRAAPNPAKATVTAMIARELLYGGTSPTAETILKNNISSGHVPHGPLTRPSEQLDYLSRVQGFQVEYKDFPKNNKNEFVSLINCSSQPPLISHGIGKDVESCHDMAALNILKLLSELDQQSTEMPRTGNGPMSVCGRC
UniProt O14929: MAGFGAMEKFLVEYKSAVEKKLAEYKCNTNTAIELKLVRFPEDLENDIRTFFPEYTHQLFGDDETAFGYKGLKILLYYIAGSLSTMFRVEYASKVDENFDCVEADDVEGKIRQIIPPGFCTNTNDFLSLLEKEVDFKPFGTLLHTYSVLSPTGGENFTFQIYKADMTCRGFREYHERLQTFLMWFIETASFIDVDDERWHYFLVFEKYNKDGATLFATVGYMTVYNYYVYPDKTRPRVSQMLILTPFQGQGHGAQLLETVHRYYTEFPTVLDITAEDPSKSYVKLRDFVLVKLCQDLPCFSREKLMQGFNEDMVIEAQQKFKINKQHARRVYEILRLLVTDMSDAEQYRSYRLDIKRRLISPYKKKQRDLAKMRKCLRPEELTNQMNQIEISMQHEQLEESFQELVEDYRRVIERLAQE
UniProt P03146: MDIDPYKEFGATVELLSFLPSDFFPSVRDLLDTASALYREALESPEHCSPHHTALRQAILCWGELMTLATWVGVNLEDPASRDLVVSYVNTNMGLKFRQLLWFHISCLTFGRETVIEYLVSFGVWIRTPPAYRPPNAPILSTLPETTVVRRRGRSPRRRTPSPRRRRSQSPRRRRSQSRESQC
UniProt P25786: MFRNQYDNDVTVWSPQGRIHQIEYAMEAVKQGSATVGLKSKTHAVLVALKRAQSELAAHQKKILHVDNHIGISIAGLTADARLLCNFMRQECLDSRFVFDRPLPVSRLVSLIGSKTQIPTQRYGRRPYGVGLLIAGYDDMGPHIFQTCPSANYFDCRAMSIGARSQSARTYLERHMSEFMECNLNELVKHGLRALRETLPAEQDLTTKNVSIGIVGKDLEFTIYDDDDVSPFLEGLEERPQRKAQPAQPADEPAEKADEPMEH
UniProt P25788: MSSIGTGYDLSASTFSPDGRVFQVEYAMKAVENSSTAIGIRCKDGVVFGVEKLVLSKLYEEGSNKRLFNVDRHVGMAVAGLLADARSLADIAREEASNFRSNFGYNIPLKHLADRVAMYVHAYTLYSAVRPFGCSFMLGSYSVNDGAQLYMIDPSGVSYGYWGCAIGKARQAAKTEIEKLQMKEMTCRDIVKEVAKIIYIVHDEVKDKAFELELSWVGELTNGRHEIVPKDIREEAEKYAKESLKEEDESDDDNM
UniProt O14818: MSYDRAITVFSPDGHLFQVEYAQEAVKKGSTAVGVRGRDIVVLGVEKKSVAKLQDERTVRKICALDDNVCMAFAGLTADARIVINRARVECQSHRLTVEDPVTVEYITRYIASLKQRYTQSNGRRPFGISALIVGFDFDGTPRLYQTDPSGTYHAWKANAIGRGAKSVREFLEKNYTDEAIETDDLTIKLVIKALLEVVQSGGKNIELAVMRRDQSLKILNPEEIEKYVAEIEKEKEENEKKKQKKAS
UniProt Q12962: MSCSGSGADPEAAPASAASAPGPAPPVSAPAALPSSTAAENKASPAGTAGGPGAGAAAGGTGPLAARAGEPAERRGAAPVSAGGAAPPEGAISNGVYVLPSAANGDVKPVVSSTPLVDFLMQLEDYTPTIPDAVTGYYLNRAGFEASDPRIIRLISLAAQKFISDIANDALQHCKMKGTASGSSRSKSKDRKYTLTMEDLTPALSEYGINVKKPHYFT

Substance: 3Flag-STAU1 (from UniProt O95793 1-577)
binding [1]: binds | binding [2]: binds

Substance: 3HA-HBx (from UniProt P03165 1-154)
binding [3]: binds

Substance: 3HA-HBx with residues 1-30 deleted (from UniProt P03165 31-154) (domain or fragment)
binding [3]: binds

Substance: 3HA-HBx with residues 121-154 deleted (from UniProt P03165 1-120) (domain or fragment)
binding [3]: no binding

binding [3]: binds
Substance: HAT1 (as used in the co-IP with STAU1) (from UniProt O14929 1-419)

Substance: N8-HBc (from UniProt P03146 1-183)
binding [4]: no binding

Substance: N8-HBx with residues 1-30 deleted (from UniProt P03165 31-154) (domain or fragment)
binding [4]: binds

Substance: N8-HBx with residues 121-154 deleted (from UniProt P03165 1-120) (domain or fragment)
binding [4]: no binding

Substance: PSMA1 (20S proteasome subunit) (from UniProt P25786 1-263)
binding [5]: binds

Substance: PSMA3 (20S proteasome subunit) (from UniProt P25788 1-255)
binding [5]: binds

Substance: PSMA7 (20S proteasome subunit) (from UniProt O14818 1-248)
binding [5]: binds

binding [6]: binds
Substance: STAU1 recombinant protein (from UniProt O95793 1-577)

binding [3]: binds
Substance: TAF10 (as used in the co-IP with STAU1) (from UniProt Q12962 1-218)

— paper PMC9156947
